PubChem BioAssay AID1259308 | NCATS – 2017
Purpose: 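Genes whose loss raises luciferase production in HEK293 cells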 (primary screen). System: human HEK293 embryonic kidney cells stably expressing firefly luciferase (HEK-CMV-Luc2-Hygro). Knock-down reagent: single siRNA against human genes, 0.8 pmol siRNA per well. Timing: 72 h. Measured: 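Luciferase light (ONE-Glo) measured on one replicate plate set and viability (CellTiter-Glo) on the other, scaled to a negative control siRNA, with robust z-scores and luciferase per cell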. Scale: total luciferase, z-score and total luciferase, % of control: higher = more reporter protein produced; luciferase per cell, z-score: higher = more reporter output per viable cell. Rule for the call: 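Active when the median/MAD z-score for overall luciferase is greater than 3; a gene was taken forward for validation with new siRNAs if at least two of its three siRNAs passed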. Meaning of the calls: active = raised luciferase; inactive = no rise.
In all, the deposit lists about 59,000 reagents; below is a part drawn at random. Over the whole deposit, about 1,510 (2.6%) are marked active. 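Calls use total luciferase alone and ignore viability, so some active siRNAs may act by altering cell number.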 Reagents against one gene are numbered here. Not all columns of the deposit are shown.

no.	gene	reagent	total luciferase, z-score	total luciferase, % of control	luciferase per cell, z-score	Call
1	GPN3 (GeneID 51184)	1	-0.828	65.4	-1.52	inactive
2	GPN3 (GeneID 51184)	2	0.136	84.6	0.468	inactive
3	GPN3 (GeneID 51184)	3	-1.21	57.8	-0.509	inactive
4	LOC441722 (GeneID 441722)	1	0.375	89.3	1.65	inactive
5	LOC441722 (GeneID 441722)	2	-0.963	62.7	-0.13	inactive
6	LOC441722 (GeneID 441722)	3	-0.836	65.3	-0.797	inactive
7	ALDH1A2 (GeneID 8854)	1	-2.45	33.3	-1.44	inactive
8	ALDH1A2 (GeneID 8854)	2	-0.283	76.3	-0.859	inactive
9	ALDH1A2 (GeneID 8854)	3	-0.0367	81.2	-1.1	inactive
10	DMRT1 (GeneID 1761)	1	-0.0948	80	-0.295	inactive
11	DMRT1 (GeneID 1761)	2	-0.718	67.6	-0.843	inactive
12	DMRT1 (GeneID 1761)	3	1.49	112	0.849	inactive
13	OTULIN (GeneID 90268)	1	-0.641	69.1	0.474	inactive
14	OTULIN (GeneID 90268)	2	-1.08	60.5	-1.28	inactive
15	OTULIN (GeneID 90268)	3	-1.18	58.5	-0.325	inactive
16	CLLU1-AS1 (GeneID 574016)	1	-0.12	79.5	-0.0509	inactive
17	CLLU1-AS1 (GeneID 574016)	2	2.21	126	1.92	inactive
18	CLLU1-AS1 (GeneID 574016)	3	-0.811	65.8	0.595	inactive
19	TM4SF4 (GeneID 7104)	1	-1.37	54.5	-0.271	inactive
20	TM4SF4 (GeneID 7104)	2	-0.264	76.6	0.104	inactive
21	TM4SF4 (GeneID 7104)	3	-1.56	50.9	-1.22	inactive
22	FBXL13 (GeneID 222235)	1	0.284	87.5	-0.0718	inactive
23	FBXL13 (GeneID 222235)	2	-0.834	65.3	-1.16	inactive
24	FBXL13 (GeneID 222235)	3	1.98	121	1.72	inactive
25	MINDY3 (GeneID 80013)	1	0.38	89.4	0.486	inactive
26	MINDY3 (GeneID 80013)	2	-0.167	78.6	-0.293	inactive
27	MINDY3 (GeneID 80013)	3	-1.24	57.3	-0.428	inactive
28	ABI2 (GeneID 10152)	1	-0.0801	80.3	-0.665	inactive
29	ABI2 (GeneID 10152)	2	0.34	88.7	-0.384	inactive
30	ABI2 (GeneID 10152)	3	-0.105	79.8	-0.169	inactive

Part of the list above, limited to “luciferase per cell, z-score”.
DMRT1 (GeneID 1761) #1	-0.295
DMRT1 (GeneID 1761) #2	-0.843
DMRT1 (GeneID 1761) #3	0.849
OTULIN (GeneID 90268) #1	0.474
OTULIN (GeneID 90268) #2	-1.28
OTULIN (GeneID 90268) #3	-0.325

Next records follow:
no.	gene	reagent	total luciferase, z-score	total luciferase, % of control	luciferase per cell, z-score	Call
31	TENM2 (GeneID 57451)	1	0.199	85.8	-0.592	inactive
32	TENM2 (GeneID 57451)	2	-0.28	76.3	-0.522	inactive
33	TENM2 (GeneID 57451)	3	-0.199	77.9	-0.0906	inactive
34	HLX (GeneID 3142)	1	-2.11	39.8	-0.816	inactive
35	HLX (GeneID 3142)	2	-0.551	70.9	-0.296	inactive
36	HLX (GeneID 3142)	3	0.504	91.9	-0.236	inactive
37	SLC10A7 (GeneID 84068)	1	-0.787	66.2	-1.03	inactive
38	SLC10A7 (GeneID 84068)	2	-0.382	74.3	-0.387	inactive
39	SLC10A7 (GeneID 84068)	3	2.16	125	1.51	inactive
40	FOXRED2 (GeneID 80020)	1	-2.06	40.9	-2.22	inactive
41	FOXRED2 (GeneID 80020)	2	-0.361	74.7	-0.336	inactive
42	FOXRED2 (GeneID 80020)	3	-0.239	77.1	-0.348	inactive
43	CIRBP-AS1 (GeneID 148046)	1	-0.804	65.9	-1.47	inactive
44	CIRBP-AS1 (GeneID 148046)	2	0.325	88.4	0.0734	inactive
45	CIRBP-AS1 (GeneID 148046)	3	-0.437	73.2	-0.635	inactive
46	ATP7A (GeneID 538)	1	0.782	97.4	1.24	inactive
47	ATP7A (GeneID 538)	2	-0.0223	81.4	0.313	inactive
48	ATP7A (GeneID 538)	3	0.669	95.2	0.276	inactive
49	TSACC (GeneID 128229)	1	-0.102	79.9	-0.348	inactive
50	TSACC (GeneID 128229)	2	0.433	90.5	-0.618	inactive
51	TSACC (GeneID 128229)	3	2.86	139	2.05	inactive
52	GPLD1 (GeneID 2822)	1	2.27	127	2.04	inactive
53	GPLD1 (GeneID 2822)	2	-0.397	74	-0.681	inactive
54	GPLD1 (GeneID 2822)	3	-0.38	74.3	-0.658	inactive
55	EXD2 (GeneID 55218)	1	-0.339	75.2	0.0451	inactive
56	EXD2 (GeneID 55218)	2	0.48	91.4	0.111	inactive
57	EXD2 (GeneID 55218)	3	0.0222	82.3	0.0117	inactive
